Data from PMC4008574 (PLoS ONE, 2014).
No constants are given. Whether binding was seen depends on the method and setting. Some results given as binding are weak or reduced against the parent protein; the word gives no strength.

By UniProt entry, the sequences of proteins in these tests, tags left out. Where a name states a change or a piece, a line headed by the entry shows the natural chain unless it says otherwise. Residues count along the entry.
UniProt Q13444, residues 421-508: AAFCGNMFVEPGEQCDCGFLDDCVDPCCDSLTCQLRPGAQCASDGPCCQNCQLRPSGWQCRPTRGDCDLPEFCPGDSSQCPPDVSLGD
UniProt P06756: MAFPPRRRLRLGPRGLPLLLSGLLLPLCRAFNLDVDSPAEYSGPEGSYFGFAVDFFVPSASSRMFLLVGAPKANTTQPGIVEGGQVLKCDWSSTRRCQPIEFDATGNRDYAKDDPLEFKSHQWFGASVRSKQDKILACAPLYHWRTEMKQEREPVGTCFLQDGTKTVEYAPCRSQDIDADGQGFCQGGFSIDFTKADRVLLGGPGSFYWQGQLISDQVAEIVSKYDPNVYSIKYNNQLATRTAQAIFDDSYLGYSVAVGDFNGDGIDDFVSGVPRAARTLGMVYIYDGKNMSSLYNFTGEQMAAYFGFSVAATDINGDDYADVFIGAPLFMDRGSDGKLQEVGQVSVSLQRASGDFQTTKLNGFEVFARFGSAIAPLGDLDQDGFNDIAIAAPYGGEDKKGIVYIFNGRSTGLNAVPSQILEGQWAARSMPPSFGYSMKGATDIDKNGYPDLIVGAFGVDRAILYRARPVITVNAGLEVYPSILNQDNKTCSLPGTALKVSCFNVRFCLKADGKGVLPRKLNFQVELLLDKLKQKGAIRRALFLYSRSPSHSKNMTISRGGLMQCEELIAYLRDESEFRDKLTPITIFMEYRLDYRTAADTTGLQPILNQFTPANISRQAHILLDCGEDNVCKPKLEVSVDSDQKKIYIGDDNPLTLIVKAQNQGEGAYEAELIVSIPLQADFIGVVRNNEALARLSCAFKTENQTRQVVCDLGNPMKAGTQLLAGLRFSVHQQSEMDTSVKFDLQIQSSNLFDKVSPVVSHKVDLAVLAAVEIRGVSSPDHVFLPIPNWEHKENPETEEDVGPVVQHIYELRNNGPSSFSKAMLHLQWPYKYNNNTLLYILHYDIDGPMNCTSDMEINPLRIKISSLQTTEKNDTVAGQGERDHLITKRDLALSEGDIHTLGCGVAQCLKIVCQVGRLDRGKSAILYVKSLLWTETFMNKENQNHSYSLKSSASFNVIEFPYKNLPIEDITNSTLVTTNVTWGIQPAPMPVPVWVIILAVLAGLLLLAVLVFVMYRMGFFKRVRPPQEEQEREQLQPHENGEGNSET

Key:
[1] = biological target: disintegrin domain of ADAM-15 (GST fusion protein) (UniProt Q13444); assay: cell adhesion assay; FN8-11, ADAM-15 or VCAM-1 coated on wells; K562, αvβ3-K562 or α4-K562 cells in RPMI 1640 added, 1 h at 37°C, with or without FKN-CD; bound cells quantified by endogenous phosphatase activity; only the target purified
[2] = biological target: disintegrin domain of ADAM-15 (GST fusion protein) (UniProt Q13444); assay: ELISA; γC399tr or ADAM-15 coated on wells; soluble αvβ3 (5 µg/ml) added with or without FKN-CD (WT or K36E/R37E) in HEPES-Tyrodes buffer with 1 mM CaCl2, 2 h at room temperature; bound αvβ3 detected with anti-β3 mAb AV-10; both purified

Row | Substance | binding [1] | binding [2]
1 | human integrin αvβ3 on K562 cells (αvβ3-K562) (from UniProt P06756 31-1048; P05106 27-788) (receptor) | binds | –
2 | recombinant soluble integrin αvβ3 (from UniProt P06756 31-987; P05106 27-718) (receptor) | – | binds
